# Measured values: PubChem BioAssay AID1347423 (Functional Genomics Laboratory (NCATS/FGL), 2020)
# About 210 (0.4%) of roughly 52,000 sequences were called active.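 Rule for the calls: active = gene whose silencing raises cell survival under the drug, median off-target-corrected z-score across its silencing RNAs 2 or more; inactive = the rest.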 This is one part of the list.
# Assay: Resistance to Poly (ADP-Ribose) Polymerase inhibitor: Gene Identification via Genome-wide siRNA Screen
# Settings: mouse BRCA2 R2336H ES cells, olaparib, CellTiter-Glo viability; stronger effect = higher value
# In short: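 Genome-wide siRNA screen (3 siRNAs/gene, 20 nM) in mouse ES cells carrying hypomorphic BRCA2 R2336H; olaparib 500 nM added 48 h post-transfection, CellTiter-Glo viability 72 h later. Normalized to plate-median negative control; MAD z-scores, gene median, seed-adjusted.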
row,Sequence,z-score
1,CCUAUGGUAGAUAUCUGUGTT against Chc1l,inactive: -0.76
2,GGAAGAAGAGCUCUUUAAATT against Acate2,inactive: 0.108
3,CGCACUUUGGCUUGUAAUUTT against Smad6,inactive: 0.642
4,CGACCGGUGUCUUGCUUUUTT against Hint1,inactive: -0.446
5,GGAGCUCAACAAGUUGCUUTT against Hist1h2aa,inactive: -0.0931
6,GGGAAAUCCGAUAUUCCCUTT against Lats2,inactive: 0.908
7,CCUAUGGCAUCGUGUAUCGTT against Cdk10,inactive: -0.963
8,GGAACAGUUUCUAAAACAGTT against Mapkbp1,inactive: 0.926
9,GGCUAAAUGCCGAUGUACUTT against 4432404J10Rik,inactive: 0.444
10,GGUGUAUGGCUUCUGUUGATT against Rab35,inactive: 1.19
11,GGCUGCUGUGAAAUCAGAATT against D430041B17,inactive: 2.4
12,GCAAAGUUACCUCAGUUCUTT against Olfr539,inactive: -0.708
13,CCCAAAACUCUAGCUACUATT against Olfr824,inactive: -2.41
14,GCUGAGACCUUUAUUUAAATT against Col11a2,inactive: 1
15,GGAUGUGGCGCAAUAUAUUTT against Gpt1,inactive: 0.406
16,CCCUCUACUACUGCAUCGUTT against AY534253,inactive: 0.138
17,GGAAUUUGAGAUUGAAUGUTT against 2410042D21Rik,inactive: 2.31
18,CCCGGUGCAGGAAUUCAACTT against D8Ertd812e,inactive: 1.82
19,GCACUUACCGGAUCCAUUGTT against Clk4,inactive: -1.62
20,GGAGAUUUCUUCAUCUUUUTT against AW413431,inactive: -1.29
21,GGUUCAUACCUGUCUUAUUTT against Slc13a4,inactive: -0.847
22,GGGUAGUUUUGACUUUGUUTT against Schip1,inactive: 0.155
23,GCUACCAUUUGAUCAGUUUTT against Entpd1,inactive: 0.467
24,GGCCUUACUCUUAAGUUCUTT against Brf1,inactive: -0.322
25,GGGAAGCUCAUUGAAGCAGTT against Snrpd3,inactive: -1.1
26,GCUACUAAAAGUAAAUGUCTT against Ugt8,inactive: -0.56
27,GCAAGUACCUAGUGGUGGATT against Stk22b,inactive: -0.0671
28,GGUUCUUCCUCAAAUUCUUTT against Ebf4,inactive: 0.79
29,GCUAGUGUGAUACCAUUUATT against Nab1,inactive: 1.7

# Exported bar-delimited: part of the list above
row | Sequence | z-score
16 | CCCUCUACUACUGCAUCGUTT against AY534253 | inactive: 0.138
22 | GGGUAGUUUUGACUUUGUUTT against Schip1 | inactive: 0.155
